Test results reported in PubChem BioAssay AID1347426 (Functional Genomics Laboratory (NCATS/FGL), 2020).
About 1,400 (4.5%) of roughly 31,000 sequences were called active.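 How the source made its calls: active means median seed-adjusted z-score above 1 or below -1; inactive means the rest.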 The list shows a part of the results.

Assay: Novel Modifiers of Survival Motor Neuron (SMN) Protein: Gene Identification via Genome-wide siRNA Screen;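 further: luminescence tracks full-length SMN protein made from the SMN2 reporter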
Conditions: HEK293T SMN2-luciferase reporter, siRNA knockdown, 72 h; actives lie on both sides
Summary of the method: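 Genome-wide siRNA screen (10418 genes, 3 siRNAs each, 1 pmol per well) by reverse transfection in HEK293T cells stably carrying an SMN2-luciferase reporter; luminescence after 72 hours, normalized to negative-control siRNA, log10-transformed, MAD-scored.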

| Sequence | median seed-adjusted z-score |
| --- | --- |
| CCAGUGAUCUAGAACAACUTT against SLC30A9 | inactive: -0.0779 |
| CCUUAACAAUAGUAAUGGATT against EXOSC8 | inactive: 0.203 |
| CCACCACCGUGUUCAACUUTT against DUSP1 | inactive: 0.336 |
| CGACCGUCAUUACCACCAUTT against KCNK5 | inactive: 0 |
| GGAAGUCCACAAUGACUAUTT against GDPD5 | inactive: -0.0618 |
| CAUGCUGCAUGGUAUCCAATT against NUP88 | inactive: 0.709 |
| GAACAAGAACUGAGGGAAATT against BCL2L10 | inactive: 0.361 |
| GGACGAAUGAUGCAGUUAATT against PLCH1 | inactive: -0.00634 |
| GGCAUUGACUUAGUUCAAATT against IL10RA | inactive: 0.156 |
| GCUGUUACUUUGCUAGGAATT against HACL1 | inactive: -0.0664 |
| GGAUAGCUAAAGAAAUUCATT against IMPA1 | inactive: -0.295 |
| GGUCUGCGGUUGAAGCUAUTT against NR1H4 | inactive: -0.056 |
| GAAGUGACCUAUGACAAAATT against PTP4A3 | inactive: 0.354 |
| CUACCGUGCAAGUUCAUUATT against CD3D | inactive: -0.403 |
| GGAAUGAUUGCAAUUAGUATT against SERPINI1 | inactive: 0.127 |
| GGAGCUCAUUUGACAUGUATT against KIR2DL5B | active: 1.72 |
| GAGCUGUACCGUGACAUUUTT against NFE2 | inactive: -0.0226 |
| GGAUGCUUCUGGGAAUUUATT against MAT2B | inactive: -0.554 |
| GAGUGGAAGUCAUACCCUATT against TTLL3 | inactive: -0.194 |
| CCUUUGCUAUGAUCAUUGATT against PCBP2 | inactive: 0 |
| GAAUUACUGAUGUCCUUGATT against RUFY1 | inactive: 0.119 |
| GUAAGCAACGUAUUAAAUATT against STAM | inactive: 0 |

| Sequence | median seed-adjusted z-score |
| --- | --- |
| GGUCAUUAAUUUACAUGAATT against STK17A | inactive: 0 |
| AGUCAGCAUUCGCUACAAUTT against SLC31A1 | inactive: 0 |
| CCCUAUUCUUCGCUACCUATT against CYP1A1 | inactive: 0.124 |
| GCCUGGUUAUAGAUCGAGATT against PRKG2 | inactive: 0.272 |
| GGAAAUGAGUGUCUGAACATT against CHMP6 | active: -1.81 |
| CGCAGGCGAAGUUACUCAATT against TXNRD2 | inactive: 0.459 |
| CCAGAUCAAGGUUCCAGGATT against TRMT1 | inactive: -0.224 |
| GGAUCUUAGCAACAUCAAUTT against SMURF2 | inactive: 0.351 |
| GGAUGAAAGUCCAUAUGGUTT against HSD17B14 | inactive: 0.386 |
| GGAUUUUUCCAAGGCUAAATT against NUDC | inactive: -0.227 |
| GCCUUGGGUCUACUAAUAATT against TNFRSF1B | inactive: -0.483 |
| GGCUCAUAACUGACAAGAUTT against SLC22A14 | inactive: 0.215 |
| GGUGGAUGAUCAUGACUCATT against ZC3HAV1 | inactive: 0.522 |
| CCGCUGCAACAACCAGAAATT against LRP3 | active: -1.05 |
| GAAGGACCAAUGUACGUCATT against ERN2 | inactive: 0.526 |
| GCCUGAAUCAGGAACAUCATT against NLP | inactive: -0.186 |
| GGACAGCAAUGAGAAUGCATT against PCDHGA1 | inactive: -0.319 |
| CUCACUAUUUGAUAAAUGATT against CX3CR1 | inactive: -0.292 |
| GGGAGAAGGGAUAACCCUATT against CD74 | inactive: 0.0748 |
| GAUGUAUAAAGGGUUCCAATT against TIMP1 | inactive: -0.0422 |
| CGACAGUCUUGCUGAAAAATT against NOTO | inactive: -0.193 |
| GCUGAUCUAUCACAAACCATT against SERPINA2 | inactive: 0.285 |

| Sequence | median seed-adjusted z-score |
| --- | --- |
| GUGUGGAUAUGAUCAUGGATT against POT1 | inactive: 0.459 |
| GGAUCUCACUUUAGAUAAUTT against RSC1A1 | inactive: 0.438 |
| CCACUUAAGCUGUCAUGUATT against VEZF1 | inactive: 0.974 |
| CCACAUGCUUCAAACAUCATT against TOR1A | inactive: -0.231 |
| GAACAGAUGGAUUACCUUUTT against IL2 | inactive: 0.0694 |
| GUACAUAGAUUAGGUUUUATT against POLR2J | inactive: 0.0437 |
| GCCUUGCUAGUGUACCCAATT against GNPTG | inactive: -0.401 |
| GACCUAUAGACUUCACAAATT against OPHN1 | inactive: 0.692 |
| GGCUUUGAGCAUAAGAUCATT against MAP3K10 | inactive: 0.201 |
| GAACAUCUUAUUUCACGAATT against FBXW11 | inactive: 0.206 |
| CCUCGAACCUUAUGAGACATT against ZNF479 | inactive: -0.269 |
| GAACCGCACUCUUCCCAAATT against S100A13 | inactive: 0.153 |
| GCCGUGCAUUUCUACGGAATT against SGTA | inactive: 0.819 |
| GCAUGAGAAGCGAAUGUCATT against NFIB | inactive: 0.1 |
| ACAUCAUCUCGGUUCCGCATT against ESR1 | inactive: -0.408 |
| CAUUGUGAAUUAUUACCUATT against CCL19 | inactive: 0.0364 |
| CCCACAUAAUCAUCACGUUTT against GNS | inactive: 0 |
| CAACCACCAUCUGACCUUUTT against MMP15 | inactive: -0.0489 |
| GCAAGAAGAUCAUAUGUGATT against OC90 | inactive: 0.216 |
| CCAUGAUAUUGGAACUGAATT against TBX15 | inactive: 0.265 |
| CAACAACCAUAAGCGUGUATT against ZNF34 | inactive: 0.0391 |
| GUCUCACCGUAUUUCAAGATT against SNTA1 | inactive: 0.212 |

| Sequence | median seed-adjusted z-score |
| --- | --- |
| CAUGAACAGUUUAUCGUAATT against FMR1 | inactive: 0.504 |
| GAAACGCAAGGGUACAGAATT against RUVBL2 | inactive: -0.0764 |
| GUAAGUUUGUUCACCGAGATT against MUSK | inactive: 0.138 |
| ACAUAAAAUCUACGAGUUUTT against IRF3 | inactive: 0.0117 |
| CGCACUGUCUCUUACAACATT against PDE12 | inactive: 0.422 |
| CAUUCAACAUUCACGAAAATT against IPO8 | inactive: -0.349 |
| GCCUUCAAGUGUUCCCGUUTT against ZNF709 | inactive: 0.0129 |
| GCCGAGUCUGUAUAACUCATT against SLC16A8 | inactive: 0.192 |
| GGACGGUGAUUGAGAUGUUTT against EHMT1 | inactive: 0.00857 |
| GGAUGUUAAUUUUUCGCUUTT against SLC22A2 | inactive: -0.0161 |
| GCAAACACCUGUUUGUGCATT against TEAD3 | inactive: 0 |
| CUCAGGAGCUGUUUCAACATT against PPOX | inactive: 0.519 |
| AGUUUCGUCUUAUACUUCATT against SLC24A3 | inactive: 0.0177 |
| AUACAGAUGAUAAACCAUUTT against ZBTB34 | inactive: 0.0298 |
| GCAUGACCGGUGGACUUUUTT against OVGP1 | inactive: -0.642 |
| GUUCAAUACUUGAACACGATT against FFAR2 | inactive: 0.146 |
| GGAUUUGGGUGGAACUGAATT against TRNT1 | inactive: 0.142 |
| GGAGAGGUUUCGUAGCUUATT against RAB27A | inactive: -0.134 |
| AGACCGCAAUUCUAAGUUUTT against GPR4 | inactive: 0.563 |
| GAAUGAGGCUUUUGUGGAUTT against CAPN12 | inactive: 0.155 |
| CCGAUGAUCUACCCACAAATT against TLR3 | inactive: 0.0615 |
| GCAUCUCGAUGAUCCAGGATT against SLITRK5 | inactive: 0.165 |

Already shown: an excerpt of the list.

| Sequence | median seed-adjusted z-score |
| --- | --- |
| GGCUUUGAGCAUAAGAUCATT against MAP3K10 | inactive: 0.201 |
| GAACAUCUUAUUUCACGAATT against FBXW11 | inactive: 0.206 |
| CCUCGAACCUUAUGAGACATT against ZNF479 | inactive: -0.269 |
| GAACCGCACUCUUCCCAAATT against S100A13 | inactive: 0.153 |
| GCCGUGCAUUUCUACGGAATT against SGTA | inactive: 0.819 |
| GCAUGAGAAGCGAAUGUCATT against NFIB | inactive: 0.1 |
| ACAUCAUCUCGGUUCCGCATT against ESR1 | inactive: -0.408 |

Next part:

| Sequence | median seed-adjusted z-score |
| --- | --- |
| GCACCUUCGUCUACAAGGATT against PDE6A | active: 1.25 |
| GGACUGCGGUACCUAAUUUTT against PLCL2 | inactive: 0.393 |
| GCAUUGCAAUGUUUCCAAUTT against ZNF396 | inactive: -0.247 |
| ACUACUAUGUCUUCACCGATT against ABO | inactive: 0 |
| CCUUUGUGCUCUACCUACATT against TTC16 | inactive: 0 |
| AGCCGUGCCUCAUCAAGAATT against WIZ | inactive: 0.282 |
| GCAGCAUAUUAUAGACAAATT against ZBTB37 | inactive: -0.219 |
| GACCCACAGUUGCAGCAUUTT against TIMM8A | inactive: 0.173 |
| CACUCAGACGGGACGUUCATT against SCT | inactive: -0.454 |
| CGAGCUGACUGAUGCCUUATT against CPT2 | inactive: 0.542 |
| GCAUCACACUCACCAACUATT against GPR124 | inactive: 0.00658 |
| GCCUACAUGUUUCUGCUGATT against RHO | inactive: -0.267 |
| GCAAGGUCGUCAACCGCAATT against SAPS1 | active: 1.16 |
| CGAAACCUUUAAAUGCGAATT against SLITRK4 | inactive: -0.015 |
| CAUCAUAUCUCAAAGUAAATT against TUBA1B | inactive: 0.0888 |
| CAUCGUAAGAUUAAUCCUATT against ZNF277 | inactive: -0.0374 |
| CAAAUAGUGUAUUACCUAATT against THAP2 | inactive: -0.273 |
| GGAAGCUAGUGGACUAUGATT against AMPH | inactive: -0.725 |
| GGGUGCAACCCAAAUCUGATT against SPRY2 | inactive: 0.148 |
| CAUAAUGUCUGCAAUCGAATT against ATP2C1 | inactive: -0.112 |
